These are yes or no findings as the source states them, for the method shown. Binding seen in cells or lysates may run through a third protein. A result given as binding can be weak or reduced; the word gives no strength.

This assay deals with SGT1, endogenous in wild type Col-0 plants (Arabidopsis (endogenous in Col-0 plants)). Put plainly: co-IP; total protein extract of 12-day-old wild type Col-0 seedlings; 50 mM Tris-HCl pH 7.5, 10 mM MgCl2, 150 mM NaCl, 0.1% NP40; IP with anti-SGT1b or anti-MPK4 and Protein A agarose at 4°C; blots with anti-SRFR1, anti-SGT1, anti-MPK4.

B1: SRFR1, endogenous in wild type Col-0 plants (protein, UniProt F4JS25-1 1-1052)
chain: MATATATSERFELAKHCSSRNWSKAIRVLDSLLAKESSILDICNRAFCYNQLELHKHVIKDCDKALLLEPFAIQAFILKGRALLALGRKQEAVLVLEQGYKSALQQTADVKQLLELEELLKDARREIDGILKSHATESPQETPAYHSEKSDEKSDKLDNHESGASSNGNSHESSSELGEQSKIVSFSKVASKASKQSDGNSDLCNGSVYKEKENGKCGSQINGYYESCKPCNGSDLHDNLAESSDRFGELSINGNKISIKSSKMSHKAEARCGISDESRKNKKYTIARISGTHSISVDFRLSRGIAQVNEGNYTKAISIFDKVLKEEPTYPEALIGRGTAYAFQRELESAIADFTKAIQSNPAASEAWKRRGQARAALGEYVEAVEDLTKALVFEPNSPDVLHERGIVNFKSKDFTAAVKDLSICLKQEKDNKSAYTYLGLAFASLGEYKKAEEAHLKSIQLDSNYLEAWLHLAQFYQELADHCKALECIEQVLQVDNRVWKAYHLRGLVFHGLGEHRKAIQELSIGLSIENTIECLYLRGSCYHAVGEYRDAVKDYDATVDVELDAVEKFVLQCLAFYQKELALYTASKVSSEFLCFDIDGDIDPMFKEYWCKRLHPKNVCEKVYRQPPLRESLKKGKLKKQDLAITKQKANILRFADLIGKRIQYDCPGFLPNKRQHRMAGLAVIEIAQKVSKAWRIEWRNSTKGTTKNGKKNRRRERTNILSQNRGGAGCSSSSFSETSTGYASLEDRSSGRSILSWQDVYSPAVRWRQISEPCDPVVWVNKLSEEFNSGFGSHTPMVLGQAKVVRYFPNYERTLTLAKSIIKDKLSVRSKKDKVIDLSKDEKIEKIMRAETCDELHNIVGEDFWVATWCDSTGSEGKRLEGTRITCIQKPGRLGYDFSIRTPCTPARWSDFDEEMTSAWEALCTAYCGENYGSTELDALETVRDAILRMTYYWYNFMPLARGTAVTGFVVLLGLLLAANMEFTETIPKGLQIDWEAILNVEPGSFVDSVKSWLYPSLKINTSWRDHTEISSAFSTTGAVVAALSTYND
As to B1, the binding result is given as “binds”.
